# Library screening results

Chains of the proteins cited; added tags and fusions are not shown.
UniProt E9BF75, entry or part of it: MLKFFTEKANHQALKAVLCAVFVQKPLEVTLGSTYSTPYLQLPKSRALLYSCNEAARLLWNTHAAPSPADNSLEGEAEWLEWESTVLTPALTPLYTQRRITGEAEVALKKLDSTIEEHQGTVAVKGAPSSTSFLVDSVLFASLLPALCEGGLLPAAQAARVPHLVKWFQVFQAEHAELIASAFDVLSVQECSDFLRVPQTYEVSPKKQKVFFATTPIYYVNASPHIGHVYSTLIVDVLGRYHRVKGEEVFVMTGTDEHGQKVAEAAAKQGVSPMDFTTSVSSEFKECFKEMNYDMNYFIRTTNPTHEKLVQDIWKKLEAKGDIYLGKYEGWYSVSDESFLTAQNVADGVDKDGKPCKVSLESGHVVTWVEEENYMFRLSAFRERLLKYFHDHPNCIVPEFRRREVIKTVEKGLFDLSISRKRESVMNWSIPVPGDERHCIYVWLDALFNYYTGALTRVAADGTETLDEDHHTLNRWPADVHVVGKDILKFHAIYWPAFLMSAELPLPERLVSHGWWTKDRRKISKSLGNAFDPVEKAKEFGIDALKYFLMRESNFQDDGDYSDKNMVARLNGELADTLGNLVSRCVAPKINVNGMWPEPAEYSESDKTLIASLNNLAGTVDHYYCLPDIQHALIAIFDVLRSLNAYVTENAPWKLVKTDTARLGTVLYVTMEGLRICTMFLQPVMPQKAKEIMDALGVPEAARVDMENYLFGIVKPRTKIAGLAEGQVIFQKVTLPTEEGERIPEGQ

From ChEMBL document CHEMBL3988442, “University of Dundee, Small-Polar-MMV Screening Library” (2021).

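Methionyl-tRNA synthetase (putative), Leishmania donovani (UniProt E9BF75). Primary screen of methionyl-tRNA synthetase; the read-out is not stated. The test concentration is not given. The values are filed as inhibition. Of about 68,000 compounds tested this way, about 24 (0.035%) reached 50% or more in at least one test.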

All values are in %.
How 0% and 100% were set is not recorded. Most values in the screen are low, and negative values occur.
This is an unselected part of the compounds tested.

| SMILES | Inhibition |
|---|---|
| `Cc1noc(C(C)N2CCN(CCC(=O)N3CCCCC3)CC2)n1` (stereo unspecified) | 14.79 |
| `Cc1nn(C)c(N(C)C)c1CNCc1cccc(CN(C)C(C)C)c1` | 10.78 |
| `CCOC(=O)CC(NC(=O)c1cn(Cc2ccccc2F)nn1)C(C)C` (stereo unspecified) | 6.69 |
| `O=S(=O)(C1CC1)N1CC[C@H](OCC2CC2)[C@@H]1Cc1ccncc1` | 16.06 |
| `CCc1ccc(C(=O)N2C[C@@H]3COC[C@@H](C(=O)NC)[C@@H]3C2)cc1` | 11.42 |
| `COCC(=O)N1CCC(c2cc3n(n2)[C@@H](C(F)(F)F)C[C@@H](C)N3)CC1` | 11.65 |
| `O=C(NCCOCC1CC1)Nc1ccc(F)cc1` | 21.51 |
| `Cc1ccc2c(c1)C1(CCN(C(=O)C3CC3)CC1)CC2N1CCOCC1` (stereo unspecified) | 12.94 |
| `CCC[C@@H]1CN(c2cncc(C(=O)N3CCOCC3)n2)C[C@H]1N(C)C` | 4.202 |
| `CC(C)NC(=O)Nc1ccc(-c2nc3c([nH]2)CCNC3)cc1` | 13.75 |
| `O=C1CCC(=O)N1c1nn(Cc2c(F)cccc2Cl)cc1Cl` | 5.676 |
| `CCN(CC(=O)NC)C(=O)c1cc(-c2cccc(Cl)c2)no1` | 3.958 |
| `Cc1nc(N2CCN(C(=O)c3ccccn3)CC2)c2c(n1)c(C)nn2C` | 28.89 |
| `CN(C(=O)Nc1ccncc1)C1CCN(c2ccccc2)C1=O` (stereo unspecified) | 4.737 |
| `Cc1nc(C)n(CC2CCCN2Cc2nc(-c3ccco3)no2)n1` (stereo unspecified) | 3.825 |
| `CC1(C)[C@H](Cc2cc(CO)on2)C[C@@H]1NCc1ccc(CO)o1` | -2.373 |
| `Cn1c(CCNc2nccnc2C#N)nc2ccc(F)cc21` | 11.02 |
| `COCCN(C/C=C/c1ccccc1)Cc1ccccn1` | 7.99 |
| `CN(Cc1ccc2c(c1)OCCO2)C(=O)Cn1cccnc1=O` | 9.79 |
| `COc1cc(CN(C)C(=O)NCCC2CCCO2)ccc1SC` (stereo unspecified) | 13.33 |
| `CCCN(C(=O)c1cnns1)C1CCCN(Cc2ccccc2)C1` (stereo unspecified) | 1.882 |
| `CCc1n[nH]c(C2CN(C(=O)c3ccnc(N(C)C)c3)CCO2)n1` (stereo unspecified) | 2.21 |
| `COC(=O)c1occc1Cn1cc(Br)cn1` | 3.107 |
| `Cc1nn(C)cc1-c1cc(C(F)F)n2nc(CCC(=O)O)nc2n1` | 12.7 |
| `CCn1ncc(-c2cc(C(F)F)nc3sc(C(N)=O)c(N)c23)c1C` | 9.915 |
| `N#Cc1ccc(S(=O)(=O)NC(=O)C2CC2)c(C(F)(F)F)c1` | 13.73 |
| `O=C1CO[C@H]2CN(C3CCOCC3)C[C@H]2N1Cc1ccccn1` | -0.339 |
| `Cc1nn(C)c(C)c1C1COCCN1c1ncnc2sccc12` (stereo unspecified) | 8.78 |
| `CCN(CC)CCn1cc(NC(=O)Nc2ccccc2OC)cn1` | 8.871 |
| `CNc1ccnc(NCCC(=O)Nc2ccccc2C)n1` | 10.74 |
| `CC(C)c1nc(C2CCCN2C(=O)c2cnc[nH]2)no1` (stereo unspecified) | 3.492 |
| `Cc1nc(C)c(C)c(N(C)CCCc2nccn2C)n1` | 3.78 |
| `Cc1cc(C)n(CC2CCCN2C(=O)CCc2nccs2)n1` (stereo unspecified) | 9.29 |
| `Cc1cc(CS(=O)(=O)N(C)C(C)c2ccc(F)cc2)on1` (stereo unspecified) | 16.62 |
| `FC(F)(F)c1cc(C2CCNCC2)nc(-c2ccsc2)n1` | 17.09 |
| `O=S1(=O)c2cnccc2OC(COc2ccccc2)CN1CC1CC1` (stereo unspecified) | 11.62 |
| `Cc1cccc(CO[C@H]2CN(c3nnc(C)s3)[C@@H]3CCCO[C@H]23)n1` | 6.015 |
| `CC(=O)N1CCCC(C(=O)N2CCN(Cc3cc(C)on3)CC2)C1` (stereo unspecified) | 9.487 |
| `O=C(CCCn1cccn1)N1C[C@@H](O)[C@H](Oc2cccc(F)c2)C1` | 9.646 |
| `CCc1c(C)nn2c(O)cc(C3CCN(C(=O)c4ccn(C)n4)C3)nc12` (stereo unspecified) | 9.884 |
| `Cc1cc(C)nc(Nc2cc(C3CCCN(C)C3)nc(C)n2)n1` (stereo unspecified) | 22.95 |
| `COc1ccc(NC(=O)Cn2cc(-c3ccccc3)ncc2=O)cn1` | 7.034 |
| `c1ccc(Cc2noc(CCNC3CCOC4(CCOCC4)C3)n2)cc1` (stereo unspecified) | 5.602 |
| `Cn1ccnc1-c1nc(NC2CCCC2)ncc1-c1cccc(F)c1` | 7.937 |
| `Cc1ccc(C(=O)N2CCC(C(F)(F)F)CC2)cc1N1CCNC1=O` | 12.85 |
| `NC(=O)c1nnn(-c2ccc(Cl)cc2)n1` | 10.82 |
| `CCN1C(=O)CCCC12CCCN(C(=O)c1sccc1C)C2` (stereo unspecified) | 17.37 |

For reference, 5 entries once more:

SMILES	Inhibition
Cc1cc(C)n(CC2CCCN2C(=O)CCc2nccs2)n1 (stereo unspecified)	9.29
CN(C(=O)Nc1ccncc1)C1CCN(c2ccccc2)C1=O (stereo unspecified)	4.737
CCN1C(=O)CCCC12CCCN(C(=O)c1sccc1C)C2 (stereo unspecified)	17.37
CCN(CC(=O)NC)C(=O)c1cc(-c2cccc(Cl)c2)no1	3.958
CC(C)NC(=O)Nc1ccc(-c2nc3c([nH]2)CCNC3)cc1	13.75